Data on 1 substance can be found in article PMC8016650.

Chains of the proteins cited; added tags and fusions are not shown.
UniProt P11413: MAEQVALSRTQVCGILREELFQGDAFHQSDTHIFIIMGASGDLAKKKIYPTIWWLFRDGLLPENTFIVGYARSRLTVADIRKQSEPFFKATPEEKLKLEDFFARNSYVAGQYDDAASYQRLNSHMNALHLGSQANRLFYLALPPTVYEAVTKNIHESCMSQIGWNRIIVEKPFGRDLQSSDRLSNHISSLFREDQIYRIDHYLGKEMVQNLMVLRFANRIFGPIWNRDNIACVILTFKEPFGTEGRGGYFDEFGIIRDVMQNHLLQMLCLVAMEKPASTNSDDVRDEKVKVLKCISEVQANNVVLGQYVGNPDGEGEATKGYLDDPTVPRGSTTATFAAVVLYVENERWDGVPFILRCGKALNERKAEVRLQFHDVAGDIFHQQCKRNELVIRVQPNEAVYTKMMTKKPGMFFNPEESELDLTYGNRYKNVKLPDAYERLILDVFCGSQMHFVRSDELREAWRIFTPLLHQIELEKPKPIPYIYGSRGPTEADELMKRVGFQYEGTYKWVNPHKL

The target in the test is T1, Testes-specific protease 50 (TSP50) (human (endogenous in Huh7 and Bel7402)) (UniProt Q9UI38).
T1 sequence: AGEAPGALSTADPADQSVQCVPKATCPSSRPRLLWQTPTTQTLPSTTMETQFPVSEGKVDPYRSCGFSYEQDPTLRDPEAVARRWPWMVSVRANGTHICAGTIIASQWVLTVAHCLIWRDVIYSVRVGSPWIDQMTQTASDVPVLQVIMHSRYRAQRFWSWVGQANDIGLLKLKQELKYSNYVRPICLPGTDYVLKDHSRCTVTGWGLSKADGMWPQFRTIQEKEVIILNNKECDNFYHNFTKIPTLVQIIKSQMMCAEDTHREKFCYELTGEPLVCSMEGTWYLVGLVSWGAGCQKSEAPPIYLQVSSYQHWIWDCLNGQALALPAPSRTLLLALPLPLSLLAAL
Description: affinity purification with mass spectrometry; Co-IP with anti-TSP50 antibody from Huh7 cells (Pierce cross-link immunoprecipitation kit), eluate analysed by LC-MS/MS; non-specific proteins removed.

Results are given in words; binding and its absence hold for the method and conditions named. In cells and extracts the contact can be indirect. These calls come from enrichment with a bait or labelling near it, and not all partners need be listed.

Turning to “Glucose-6-phosphate dehydrogenase (G6PD) (from UniProt P11413 1-515) (enzyme)”, the binding result was “binds”.
